According to the supplement of paper PMC10060354, “Discovery of a small molecule ligand of FRS2 that inhibits invasion and tumor growth” (Cellular Oncology, 2022):
Single values are uncertain, as repeats are few or missing.

Chains of the proteins cited; added tags and fusions are not shown. Lines headed by an entry give the natural chain unless they say otherwise; changes in a name come on top.
UniProt P40306: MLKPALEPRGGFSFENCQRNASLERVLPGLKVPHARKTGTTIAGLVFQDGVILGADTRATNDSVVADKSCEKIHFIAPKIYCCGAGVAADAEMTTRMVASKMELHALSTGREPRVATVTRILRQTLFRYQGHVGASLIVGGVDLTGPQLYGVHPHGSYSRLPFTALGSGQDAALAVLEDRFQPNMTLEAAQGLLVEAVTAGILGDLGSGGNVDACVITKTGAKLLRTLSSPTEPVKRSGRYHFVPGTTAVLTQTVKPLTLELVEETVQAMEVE
UniProt Q66PJ3: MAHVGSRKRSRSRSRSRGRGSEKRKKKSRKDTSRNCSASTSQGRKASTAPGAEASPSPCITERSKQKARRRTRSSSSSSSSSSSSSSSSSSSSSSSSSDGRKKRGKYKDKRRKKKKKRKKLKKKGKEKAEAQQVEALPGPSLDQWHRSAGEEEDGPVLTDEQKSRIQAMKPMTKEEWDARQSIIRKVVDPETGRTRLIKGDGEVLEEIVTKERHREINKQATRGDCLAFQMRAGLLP
UniProt Q5BKZ1: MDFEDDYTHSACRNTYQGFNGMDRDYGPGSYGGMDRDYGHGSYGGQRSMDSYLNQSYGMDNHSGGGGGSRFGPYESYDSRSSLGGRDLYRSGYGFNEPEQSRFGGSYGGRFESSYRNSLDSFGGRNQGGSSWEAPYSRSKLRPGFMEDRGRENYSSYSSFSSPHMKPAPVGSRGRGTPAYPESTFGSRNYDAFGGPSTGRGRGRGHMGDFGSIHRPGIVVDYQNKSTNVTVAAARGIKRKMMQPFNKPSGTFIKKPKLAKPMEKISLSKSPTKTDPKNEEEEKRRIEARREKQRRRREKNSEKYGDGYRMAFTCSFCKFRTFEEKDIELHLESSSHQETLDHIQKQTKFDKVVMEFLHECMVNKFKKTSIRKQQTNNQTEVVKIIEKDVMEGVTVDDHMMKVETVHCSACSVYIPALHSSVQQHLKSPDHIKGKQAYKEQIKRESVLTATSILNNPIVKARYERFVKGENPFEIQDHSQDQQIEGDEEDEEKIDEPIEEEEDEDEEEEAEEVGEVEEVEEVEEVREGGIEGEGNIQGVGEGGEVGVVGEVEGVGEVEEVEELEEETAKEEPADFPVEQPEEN
UniProt P05091: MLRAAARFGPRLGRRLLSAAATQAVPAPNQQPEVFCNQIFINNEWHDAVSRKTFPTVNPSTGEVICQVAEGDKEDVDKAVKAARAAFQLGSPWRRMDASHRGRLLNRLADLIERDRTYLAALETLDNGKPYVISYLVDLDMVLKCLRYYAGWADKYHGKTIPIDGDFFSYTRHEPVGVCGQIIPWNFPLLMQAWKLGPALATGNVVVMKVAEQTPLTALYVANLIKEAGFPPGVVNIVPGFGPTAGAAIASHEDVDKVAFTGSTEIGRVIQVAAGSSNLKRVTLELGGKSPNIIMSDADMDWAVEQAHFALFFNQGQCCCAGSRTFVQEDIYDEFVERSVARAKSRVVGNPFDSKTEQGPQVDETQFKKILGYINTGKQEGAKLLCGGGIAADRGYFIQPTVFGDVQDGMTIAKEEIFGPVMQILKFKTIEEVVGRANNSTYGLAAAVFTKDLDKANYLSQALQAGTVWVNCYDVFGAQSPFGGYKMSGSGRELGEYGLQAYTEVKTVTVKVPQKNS
UniProt P43355: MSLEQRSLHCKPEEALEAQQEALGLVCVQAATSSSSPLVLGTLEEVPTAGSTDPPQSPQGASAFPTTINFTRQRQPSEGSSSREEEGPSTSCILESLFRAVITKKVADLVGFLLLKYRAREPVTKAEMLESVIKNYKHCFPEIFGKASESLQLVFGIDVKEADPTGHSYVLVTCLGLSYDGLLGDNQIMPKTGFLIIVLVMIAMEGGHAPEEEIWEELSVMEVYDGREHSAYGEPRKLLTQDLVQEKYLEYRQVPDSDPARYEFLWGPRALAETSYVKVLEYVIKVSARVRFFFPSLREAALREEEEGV
UniProt Q8WXA9: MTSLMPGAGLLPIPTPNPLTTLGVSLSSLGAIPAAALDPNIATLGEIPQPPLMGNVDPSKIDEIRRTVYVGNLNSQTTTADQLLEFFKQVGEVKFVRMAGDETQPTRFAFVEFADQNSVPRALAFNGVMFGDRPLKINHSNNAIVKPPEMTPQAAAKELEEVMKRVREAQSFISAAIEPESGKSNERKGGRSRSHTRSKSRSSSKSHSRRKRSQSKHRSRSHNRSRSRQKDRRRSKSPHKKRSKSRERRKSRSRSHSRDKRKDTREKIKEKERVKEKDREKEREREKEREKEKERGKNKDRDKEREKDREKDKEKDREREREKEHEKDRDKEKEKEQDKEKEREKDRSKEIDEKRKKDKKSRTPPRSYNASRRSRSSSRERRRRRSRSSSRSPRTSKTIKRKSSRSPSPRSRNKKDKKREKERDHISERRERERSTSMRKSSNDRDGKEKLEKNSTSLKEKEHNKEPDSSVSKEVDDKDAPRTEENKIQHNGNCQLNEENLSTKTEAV
UniProt O75223: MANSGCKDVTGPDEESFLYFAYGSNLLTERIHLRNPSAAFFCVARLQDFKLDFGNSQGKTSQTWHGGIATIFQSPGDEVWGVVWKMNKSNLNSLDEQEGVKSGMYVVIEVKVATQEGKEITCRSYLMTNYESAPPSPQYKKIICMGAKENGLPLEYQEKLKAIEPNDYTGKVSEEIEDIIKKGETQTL
UniProt Q969N2: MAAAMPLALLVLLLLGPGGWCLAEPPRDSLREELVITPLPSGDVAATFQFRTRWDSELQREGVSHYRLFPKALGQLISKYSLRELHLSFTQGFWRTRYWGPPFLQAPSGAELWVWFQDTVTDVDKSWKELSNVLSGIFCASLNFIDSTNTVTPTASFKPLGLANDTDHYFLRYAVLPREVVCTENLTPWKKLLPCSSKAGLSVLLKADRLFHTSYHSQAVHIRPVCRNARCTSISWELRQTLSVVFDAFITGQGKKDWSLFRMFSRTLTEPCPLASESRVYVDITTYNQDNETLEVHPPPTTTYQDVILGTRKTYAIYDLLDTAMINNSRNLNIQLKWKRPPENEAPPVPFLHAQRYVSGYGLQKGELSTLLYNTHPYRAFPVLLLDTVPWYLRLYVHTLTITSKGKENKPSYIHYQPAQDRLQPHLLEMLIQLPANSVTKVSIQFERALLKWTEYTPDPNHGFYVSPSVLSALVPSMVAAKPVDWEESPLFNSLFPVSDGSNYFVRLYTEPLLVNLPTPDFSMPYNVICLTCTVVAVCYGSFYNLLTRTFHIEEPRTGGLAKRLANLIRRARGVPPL
UniProt Q9H9Y2: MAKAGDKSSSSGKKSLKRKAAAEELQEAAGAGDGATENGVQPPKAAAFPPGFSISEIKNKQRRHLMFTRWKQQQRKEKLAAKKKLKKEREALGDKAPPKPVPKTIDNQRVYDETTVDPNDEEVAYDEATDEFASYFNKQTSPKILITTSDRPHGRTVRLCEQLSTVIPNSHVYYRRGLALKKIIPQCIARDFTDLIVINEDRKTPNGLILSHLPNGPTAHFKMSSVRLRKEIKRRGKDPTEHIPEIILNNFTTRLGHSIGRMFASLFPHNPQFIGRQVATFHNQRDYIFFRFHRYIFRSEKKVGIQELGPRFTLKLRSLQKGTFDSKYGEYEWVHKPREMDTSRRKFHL
UniProt Q9NZB2: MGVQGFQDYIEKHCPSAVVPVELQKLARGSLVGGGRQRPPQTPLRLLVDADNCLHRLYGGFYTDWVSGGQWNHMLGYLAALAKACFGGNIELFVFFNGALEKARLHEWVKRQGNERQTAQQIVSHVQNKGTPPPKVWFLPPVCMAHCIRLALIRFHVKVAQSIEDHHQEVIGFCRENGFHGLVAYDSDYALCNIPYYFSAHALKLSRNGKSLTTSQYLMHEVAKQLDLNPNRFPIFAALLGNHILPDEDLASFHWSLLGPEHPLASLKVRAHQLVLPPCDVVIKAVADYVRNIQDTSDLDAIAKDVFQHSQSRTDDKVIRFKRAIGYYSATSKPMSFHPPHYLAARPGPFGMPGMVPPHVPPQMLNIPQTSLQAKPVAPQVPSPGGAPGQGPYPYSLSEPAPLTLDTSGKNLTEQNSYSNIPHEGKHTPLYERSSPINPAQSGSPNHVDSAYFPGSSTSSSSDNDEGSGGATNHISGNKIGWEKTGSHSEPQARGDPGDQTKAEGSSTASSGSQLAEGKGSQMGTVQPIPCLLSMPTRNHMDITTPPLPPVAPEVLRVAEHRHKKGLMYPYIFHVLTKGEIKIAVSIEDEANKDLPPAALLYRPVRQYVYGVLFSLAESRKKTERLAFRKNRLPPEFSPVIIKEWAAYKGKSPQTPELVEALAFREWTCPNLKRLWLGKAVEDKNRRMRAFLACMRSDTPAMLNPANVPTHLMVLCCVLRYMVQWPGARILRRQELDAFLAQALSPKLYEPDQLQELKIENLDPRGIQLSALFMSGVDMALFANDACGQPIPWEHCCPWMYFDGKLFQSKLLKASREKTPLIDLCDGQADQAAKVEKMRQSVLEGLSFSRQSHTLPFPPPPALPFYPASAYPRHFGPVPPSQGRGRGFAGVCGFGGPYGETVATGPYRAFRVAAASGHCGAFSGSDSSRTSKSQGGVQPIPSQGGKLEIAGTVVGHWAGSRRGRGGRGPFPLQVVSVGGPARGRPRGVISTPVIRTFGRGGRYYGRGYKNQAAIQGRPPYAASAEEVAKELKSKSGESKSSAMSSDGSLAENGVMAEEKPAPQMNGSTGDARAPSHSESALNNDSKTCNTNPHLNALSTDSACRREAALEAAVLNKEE
UniProt Q7Z4G1, whole entry: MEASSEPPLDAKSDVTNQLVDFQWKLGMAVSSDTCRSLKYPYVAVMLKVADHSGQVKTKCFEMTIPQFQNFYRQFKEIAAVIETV
UniProt Q9NWB6: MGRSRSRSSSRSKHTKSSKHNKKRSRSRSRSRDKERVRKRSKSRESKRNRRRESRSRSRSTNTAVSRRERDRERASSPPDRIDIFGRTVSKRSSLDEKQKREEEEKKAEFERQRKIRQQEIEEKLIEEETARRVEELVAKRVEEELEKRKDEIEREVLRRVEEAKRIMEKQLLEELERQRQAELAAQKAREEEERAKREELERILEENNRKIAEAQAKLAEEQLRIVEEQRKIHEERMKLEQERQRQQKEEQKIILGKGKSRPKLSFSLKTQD
UniProt A6NIH7: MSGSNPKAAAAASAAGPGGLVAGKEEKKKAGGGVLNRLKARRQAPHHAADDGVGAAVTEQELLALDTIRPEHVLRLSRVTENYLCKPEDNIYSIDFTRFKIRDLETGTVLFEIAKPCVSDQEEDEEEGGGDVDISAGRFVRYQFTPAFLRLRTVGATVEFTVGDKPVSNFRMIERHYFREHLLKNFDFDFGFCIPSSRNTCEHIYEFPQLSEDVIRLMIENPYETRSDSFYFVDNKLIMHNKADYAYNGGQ
UniProt P19838: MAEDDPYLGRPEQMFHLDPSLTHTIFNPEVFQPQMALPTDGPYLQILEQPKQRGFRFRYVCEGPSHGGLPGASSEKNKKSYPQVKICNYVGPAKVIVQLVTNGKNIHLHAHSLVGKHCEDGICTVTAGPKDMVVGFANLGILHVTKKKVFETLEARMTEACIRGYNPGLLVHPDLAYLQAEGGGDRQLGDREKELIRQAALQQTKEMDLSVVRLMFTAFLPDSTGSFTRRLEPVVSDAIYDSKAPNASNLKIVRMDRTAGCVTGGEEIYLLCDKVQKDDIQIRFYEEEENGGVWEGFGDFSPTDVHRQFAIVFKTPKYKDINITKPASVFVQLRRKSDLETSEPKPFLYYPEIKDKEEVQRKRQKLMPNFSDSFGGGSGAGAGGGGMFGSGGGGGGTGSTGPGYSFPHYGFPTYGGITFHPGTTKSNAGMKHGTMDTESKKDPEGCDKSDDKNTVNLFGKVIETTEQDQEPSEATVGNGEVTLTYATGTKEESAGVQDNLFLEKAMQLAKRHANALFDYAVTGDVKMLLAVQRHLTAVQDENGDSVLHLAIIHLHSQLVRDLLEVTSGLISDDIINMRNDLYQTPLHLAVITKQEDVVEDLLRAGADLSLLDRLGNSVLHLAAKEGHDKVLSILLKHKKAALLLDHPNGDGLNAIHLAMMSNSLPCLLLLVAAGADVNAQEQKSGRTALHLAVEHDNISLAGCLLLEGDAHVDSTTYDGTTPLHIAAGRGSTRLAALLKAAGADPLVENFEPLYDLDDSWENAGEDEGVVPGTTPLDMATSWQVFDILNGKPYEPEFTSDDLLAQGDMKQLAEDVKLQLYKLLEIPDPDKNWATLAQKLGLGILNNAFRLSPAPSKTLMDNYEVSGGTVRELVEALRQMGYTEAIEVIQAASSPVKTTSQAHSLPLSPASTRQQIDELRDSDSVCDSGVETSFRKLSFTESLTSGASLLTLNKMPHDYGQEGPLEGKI
UniProt O43488: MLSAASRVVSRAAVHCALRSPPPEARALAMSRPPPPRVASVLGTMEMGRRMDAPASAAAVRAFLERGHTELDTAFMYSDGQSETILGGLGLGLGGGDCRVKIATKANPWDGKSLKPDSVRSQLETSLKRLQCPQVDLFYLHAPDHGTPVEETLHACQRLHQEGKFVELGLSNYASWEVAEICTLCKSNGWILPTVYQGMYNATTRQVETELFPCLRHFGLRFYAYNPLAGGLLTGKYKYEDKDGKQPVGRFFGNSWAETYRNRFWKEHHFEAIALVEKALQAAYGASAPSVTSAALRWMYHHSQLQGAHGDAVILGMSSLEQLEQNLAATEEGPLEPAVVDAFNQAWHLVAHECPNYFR

Compound: [O-][N+](C(C1=C(C(O)=C2)NC(C(C=C3)=CC=C3Cl)C4C1C=CC4)=C2Cl)=O
Assay: melting temperature shift (compound 7 minus DMSO); higher = compound stabilises the protein
Conditions: 10 µM
Procedure: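 Thermal proteome profiling (TMT mass spectrometry) in intact DAOY medulloblastoma cells or DAOY lysates treated with 10 µM compound 7 or DMSO, heated at 10 temperatures from 40.5 to 73.8 °C for 3 min. Melting curves were fitted with the Bioconductor TPP package, and the melting point difference between compound and vehicle is reported per protein (single curve per condition).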

[1] = system: DAOY cell lysate, treatment time: 20 min, 4 °C
[2] = system: intact DAOY cells, treatment time: 90 min, 37 °C

UniProt P40306
melting temperature shift [1]: 1.83 °C
melting temperature shift [2]: 0.639 °C

TXLNG (UniProt Q9NUQ3)
melting temperature shift [1]: -0.256 °C
melting temperature shift [2]: 0.294 °C

RAD21 (UniProt O60216)
melting temperature shift [1]: -0.0626 °C
melting temperature shift [2]: -0.98 °C

NUBP2 (UniProt Q9Y5Y2)
melting temperature shift [1]: -0.591 °C
melting temperature shift [2]: 0.479 °C

MAGED2 (UniProt Q9UNF1)
melting temperature shift [1]: -1.05 °C
melting temperature shift [2]: 0.233 °C

UniProt Q6STE5
melting temperature shift [1]: -2.21 °C
melting temperature shift [2]: -0.665 °C

EPN1 (UniProt Q9Y6I3)
melting temperature shift [1]: -1.1 °C
melting temperature shift [2]: 0.402 °C

ALCAM (UniProt Q13740)
melting temperature shift [1]: 1.95 °C

RALGPS2 (UniProt Q86X27)
melting temperature shift [1]: 0.0418 °C

NCSTN (UniProt Q92542)
melting temperature shift [1]: 1.28 °C

CEP290 (UniProt O15078)
melting temperature shift [1]: 0.145 °C

LUZP1 (UniProt Q86V48)
melting temperature shift [1]: 0.528 °C
melting temperature shift [2]: 1.17 °C

PUF60 (UniProt Q9UHX1)
melting temperature shift [1]: -0.115 °C
melting temperature shift [2]: -0.875 °C

UniProt O75845
melting temperature shift [1]: 0.904 °C
melting temperature shift [2]: -1.15 °C

STRN3 (UniProt Q13033)
melting temperature shift [1]: -0.0327 °C
melting temperature shift [2]: -0.0642 °C

TRIP13 (UniProt Q15645)
melting temperature shift [1]: -0.17 °C
melting temperature shift [2]: -2.27 °C

SAP130 (UniProt Q9H0E3)
melting temperature shift [1]: -0.373 °C
melting temperature shift [2]: -1.34 °C

ATP6V1C1 (UniProt P21283)
melting temperature shift [1]: -0.43 °C
melting temperature shift [2]: 0.939 °C

ARL6IP4 (UniProt Q66PJ3)
melting temperature shift [1]: 1.22 °C
melting temperature shift [2]: -0.208 °C

SLC25A46 (UniProt Q96AG3)
melting temperature shift [2]: -0.481 °C

SNRNP70 (UniProt P08621)
melting temperature shift [1]: 0.86 °C
melting temperature shift [2]: -0.414 °C

UniProt P16118
melting temperature shift [2]: 2.45 °C

RPP30 (UniProt P78346)
melting temperature shift [1]: -1.26 °C
melting temperature shift [2]: -0.562 °C

SNRPF (UniProt P62306)
melting temperature shift [1]: -1.07 °C
melting temperature shift [2]: -0.403 °C

GNB4 (UniProt Q9HAV0)
melting temperature shift [1]: 2.09 °C

B4GALT1 (UniProt P15291)
melting temperature shift [1]: 0.0142 °C
melting temperature shift [2]: 0.739 °C

COG2 (UniProt Q14746)
melting temperature shift [1]: -0.42 °C
melting temperature shift [2]: -0.525 °C

GBAS (UniProt O75323)
melting temperature shift [1]: 1.07 °C
melting temperature shift [2]: 0.337 °C

ZNF326 (UniProt Q5BKZ1)
melting temperature shift [1]: 0.112 °C
melting temperature shift [2]: -0.189 °C

GDAP1 (UniProt Q8TB36)
melting temperature shift [1]: 2.54 °C
melting temperature shift [2]: 2.92 °C

TRMT1L (UniProt Q7Z2T5)
melting temperature shift [1]: 0.0989 °C
melting temperature shift [2]: -0.994 °C

UniProt Q9UBX3
melting temperature shift [1]: 1.3 °C
melting temperature shift [2]: 0.709 °C

MOSPD2 (UniProt Q8NHP6)
melting temperature shift [1]: 0.149 °C
melting temperature shift [2]: 0.849 °C

TPD52L1 (UniProt Q16890)
melting temperature shift [1]: -0.128 °C

SAMHD1 (UniProt Q9Y3Z3)
melting temperature shift [1]: -0.953 °C
melting temperature shift [2]: -1.27 °C

UniProt P05091
melting temperature shift [1]: 0.111 °C
melting temperature shift [2]: -0.0587 °C

ASNA1 (UniProt O43681)
melting temperature shift [1]: -0.438 °C
melting temperature shift [2]: -1.71 °C

ACTN1 (UniProt P12814)
melting temperature shift [1]: -0.743 °C
melting temperature shift [2]: 1.05 °C

UniProt P53677
melting temperature shift [1]: -1.38 °C

MRPL43 (UniProt Q8N983)
melting temperature shift [1]: 0.789 °C
melting temperature shift [2]: -0.966 °C

DNMT1 (UniProt P26358)
melting temperature shift [1]: 0.161 °C
melting temperature shift [2]: 0.0293 °C

GNS (UniProt P15586)
melting temperature shift [1]: -0.773 °C
melting temperature shift [2]: -1.48 °C

PNPO (UniProt Q9NVS9)
melting temperature shift [1]: 0.00691 °C
melting temperature shift [2]: 1.62 °C

NMI (UniProt Q13287)
melting temperature shift [1]: -1.9 °C
melting temperature shift [2]: 5.21 °C

UniProt P21589
melting temperature shift [1]: 0.67 °C

ATF7IP (UniProt Q6VMQ6)
melting temperature shift [1]: -0.965 °C
melting temperature shift [2]: -2.53 °C

EDRF1 (UniProt Q3B7T1)
melting temperature shift [1]: 0.0445 °C
melting temperature shift [2]: -0.727 °C

FAM120B (UniProt Q96EK7)
melting temperature shift [1]: -1.02 °C
melting temperature shift [2]: -0.318 °C

HSPA2 (UniProt P54652)
melting temperature shift [1]: 0.512 °C
melting temperature shift [2]: -0.256 °C

UniProt O60759
melting temperature shift [2]: -0.854 °C

CEP170 (UniProt Q5SW79)
melting temperature shift [1]: -0.468 °C
melting temperature shift [2]: -0.123 °C

ATP5E (UniProt P56381)
melting temperature shift [1]: 2.28 °C
melting temperature shift [2]: -0.89 °C

AGK (UniProt Q53H12)
melting temperature shift [1]: 1.45 °C
melting temperature shift [2]: 0.533 °C

UniProt E9PQ53
melting temperature shift [2]: -2.26 °C

MAGEA1 (UniProt P43355)
melting temperature shift [1]: -3 °C

UHRF1BP1 (UniProt Q6BDS2)
melting temperature shift [1]: -0.0859 °C
melting temperature shift [2]: -1.06 °C

FBXO22 (UniProt Q8NEZ5)
melting temperature shift [1]: -0.549 °C
melting temperature shift [2]: 1.02 °C

REXO2 (UniProt Q9Y3B8)
melting temperature shift [1]: 0.345 °C

MIER1 (UniProt Q8N108)
melting temperature shift [1]: -0.455 °C
melting temperature shift [2]: 2.21 °C

SIRT2 (UniProt Q8IXJ6)
melting temperature shift [2]: -0.8 °C

HDAC2 (UniProt Q92769)
melting temperature shift [1]: 0.154 °C
melting temperature shift [2]: -0.141 °C

SLC30A7 (UniProt Q8NEW0)
melting temperature shift [1]: -0.45 °C
melting temperature shift [2]: -0.18 °C

SREK1 (UniProt Q8WXA9)
melting temperature shift [1]: 0.614 °C
melting temperature shift [2]: -1.23 °C

SACM1L (UniProt Q9NTJ5)
melting temperature shift [1]: 0.151 °C
melting temperature shift [2]: 0.141 °C

NCAPD3 (UniProt P42695)
melting temperature shift [1]: -1.65 °C
melting temperature shift [2]: 1.6 °C

UTP4 (UniProt Q969X6)
melting temperature shift [1]: 1.14 °C
melting temperature shift [2]: 0.797 °C

UniProt Q9BYC2
melting temperature shift [2]: 0.0355 °C

UniProt Q96KC2
melting temperature shift [2]: -2.05 °C

ARPC1B (UniProt O15143)
melting temperature shift [1]: -1.49 °C
melting temperature shift [2]: -0.0284 °C

C14ORF166 (UniProt Q9Y224)
melting temperature shift [1]: -0.681 °C
melting temperature shift [2]: -0.418 °C

RPL10 (UniProt P27635)
melting temperature shift [1]: 1.47 °C
melting temperature shift [2]: -0.822 °C

GGCT (UniProt O75223)
melting temperature shift [1]: -1.09 °C
melting temperature shift [2]: 1.97 °C

UniProt P45984
melting temperature shift [1]: -1.35 °C
melting temperature shift [2]: -0.642 °C

UniProt P15090
melting temperature shift [1]: -1.28 °C
melting temperature shift [2]: -0.195 °C

DDAH1 (UniProt O94760)
melting temperature shift [1]: -0.955 °C
melting temperature shift [2]: 1.01 °C

PIGT (UniProt Q969N2)
melting temperature shift [1]: 0.992 °C
melting temperature shift [2]: -0.528 °C

UniProt Q9H9Y2
melting temperature shift [1]: 0.32 °C

FAM120A (UniProt Q9NZB2)
melting temperature shift [1]: 0.243 °C
melting temperature shift [2]: -0.0593 °C

UniProt P78527
melting temperature shift [1]: -0.413 °C
melting temperature shift [2]: -1.53 °C

LTA4H (UniProt P09960)
melting temperature shift [1]: -0.37 °C
melting temperature shift [2]: 0.00347 °C

UniProt P52790
melting temperature shift [2]: -0.386 °C

KLC2 (UniProt Q9H0B6)
melting temperature shift [1]: 0.0743 °C
melting temperature shift [2]: -0.349 °C

SPNS1 (UniProt Q9H2V7)
melting temperature shift [1]: 7.51 °C

TMED7 (UniProt Q9Y3B3)
melting temperature shift [1]: 0.725 °C
melting temperature shift [2]: -1.92 °C

NFKB2 (UniProt Q00653)
melting temperature shift [1]: 0.32 °C
melting temperature shift [2]: 0.498 °C

PPP2CA (UniProt P67775)
melting temperature shift [1]: -0.879 °C
melting temperature shift [2]: 1.28 °C

DIABLO (UniProt Q9NR28)
melting temperature shift [1]: 0.188 °C
melting temperature shift [2]: -1.03 °C

OGFR (UniProt Q9NZT2)
melting temperature shift [1]: 0.0826 °C
melting temperature shift [2]: 1.73 °C

TMEM263 (UniProt Q8WUH6)
melting temperature shift [1]: -1.66 °C
melting temperature shift [2]: -0.999 °C

UniProt Q9H0R5
melting temperature shift [2]: 0.411 °C

UniProt Q16514
melting temperature shift [1]: -0.59 °C

UniProt O94805
melting temperature shift [2]: 2.38 °C

UniProt Q7Z4G1
melting temperature shift [1]: -2.03 °C
melting temperature shift [2]: 1.3 °C

ECI1 (UniProt P42126)
melting temperature shift [1]: -0.908 °C
melting temperature shift [2]: 0.793 °C

UniProt Q14168
melting temperature shift [1]: 0.497 °C

NEDD4 (UniProt P46934)
melting temperature shift [1]: 0.065 °C
melting temperature shift [2]: -1.3 °C

ARGLU1 (UniProt Q9NWB6)
melting temperature shift [2]: -0.18 °C

NDFIP1 (UniProt Q9BT67)
melting temperature shift [2]: 3.46 °C

AIMP2 (UniProt Q13155)
melting temperature shift [1]: 0.511 °C
melting temperature shift [2]: -0.409 °C

COG4 (UniProt Q9H9E3)
melting temperature shift [1]: -0.489 °C
melting temperature shift [2]: -1.15 °C

DST (UniProt Q03001)
melting temperature shift [1]: -0.68 °C
melting temperature shift [2]: 0.242 °C

UNC119B (UniProt A6NIH7)
melting temperature shift [1]: -0.56 °C
melting temperature shift [2]: 1.53 °C

UniProt Q7L2Z9
melting temperature shift [1]: -0.72 °C

ERCC5 (UniProt P28715)
melting temperature shift [1]: 2.28 °C
melting temperature shift [2]: 1.98 °C

ERC1 (UniProt Q8IUD2)
melting temperature shift [1]: -1.25 °C
melting temperature shift [2]: -0.18 °C

DCTN1 (UniProt Q14203)
melting temperature shift [1]: -0.755 °C
melting temperature shift [2]: 0.248 °C

USP39 (UniProt Q53GS9)
melting temperature shift [1]: 0.268 °C
melting temperature shift [2]: 1.69 °C

NFKB1 (UniProt P19838)
melting temperature shift [1]: 0.449 °C
melting temperature shift [2]: 0.689 °C

AKR7A2 (UniProt O43488)
melting temperature shift [1]: -0.491 °C
melting temperature shift [2]: -0.0233 °C

UniProt Q3LIE5
melting temperature shift [1]: -1.7 °C
